# “And” between values parts separate entries of the source, which are not always exact repeats. Equal entries are not always repeated. The whole screen tested about 400,000 compounds, of which about 13,000 (3.2%) were called active. Inconclusive means that the source gave no clear call. Such entries were picked first, then a sample of the others. Calls come from the whole dose curve; as a rule, active = well fitted cell-killing curve with a large enough effect; inconclusive = small, poorly fitted or top-dose-only effect, or effect the other way; inactive = flat fitted curve, though single readings scatter. A potency beside an inconclusive call is a rough fit, not a confirmed value.
# Experiment: qHTS assay for MDR1-selective chemotherapeutics: Primary screen using the drug-selected MDR subline cells KB-V1; note: nearly all actives have a fitted effect of over 60% in size
# Conditions: KB-V1 MDR cells viability, CellTiter-Glo, 72 h; activity change, negative = cytotoxicity: at 46.1 µM (top of the series)
# How it was run: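 In this primary screen, KB-V1 cells overexpressing P-gp are incubated with library compounds (lowest to highest concentration) for 72 h at 37 degrees C before a luminescent ATP viability read.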
# % is set by controls: 0 for no effect and ±100 for the full control effect; potency is the fitted concentration of half-maximal effect.
SMILES,"activity change, negative = cytotoxicity",Potency
Cc1ccc(C(=O)/C=C/c2cc(Br)cc(Br)c2O)o1,inactive: -20.2%,
NC1=NC[C@H](c2ccccc2)N1CCc1cc(C(F)(F)F)cc(C(F)(F)F)c1,,"inconclusive: 20.6 µM [rising, partial curve, poor fit]"
O=C(CN1C2CCCC1CC(NC(=O)c1ccccc1)C2)Nc1ccccc1 (stereo not drawn),,"inconclusive: 3.26 µM [cytotoxic, partial curve, poor fit]"
CC[C@H](C)[C@H](NC(=O)c1ccc(Cl)cc1)C(=O)OCC(=O)c1ccc2c(c1)NC(=O)CO2,,"inconclusive: 29.1 µM [cytotoxic, single point]"
CCn1nc(C(=O)Nc2cccc(S(=O)(=O)N3CCCC3)c2)c2ccccc2c1=O,,"inconclusive: 25.9 µM [cytotoxic, single point]"
CCOCC(=O)Nc1ccc(S(=O)(=O)Nc2nccs2)cc1,,"inconclusive: 8.2 µM [rising, partial curve, poor fit]"
COc1ccc(CCN(C)C(=O)c2cccc(S(=O)(=O)NCc3ccccc3)c2)cc1OC,,"inconclusive: 20.6 µM [cytotoxic, single point]"
Cc1ccc(NC(=O)Nc2cccc([N+](=O)[O-])c2)cc1F,,active: 16.4 µM
CSCCC(NS(=O)(=O)c1ccc(Cl)cc1)C(=O)OCC(=O)c1c(C)[nH]c2ccccc12 (stereo not drawn),,active: 14.6 µM
Cc1noc(C)c1S(=O)(=O)Nc1ccccc1Cl,,"inconclusive: 32.6 µM [rising, single point]"
O=C(NCCCO)/C(=C\c1cn(-c2ccccc2)nc1-c1cccnc1)NC(=O)c1ccccc1,inactive: 0%,
COc1ccc(-c2ccc3ncnc(NCCc4cnc[nH]4)c3c2)cc1OC,inactive: 16.4%,
CN(C)c1ccc(C(C(=O)NCC2CCCO2)N(C(=O)c2snc(C(N)=O)c2N)c2ccccc2)cc1 (stereo not drawn),inactive: 1.72%,
Cc1onc(-c2ccccc2Cl)c1C(=O)Nc1cccc(-c2nc3ncccn3c2C)c1,,active: 8.2 µM
COc1ccc(C)c2sc(N(CCCN(C)C)C(=O)c3ccc(S(=O)(=O)N4CCc5ccccc5C4)cc3)nc12,,active: 10.3 µM
COC(=O)c1ccccc1NC(=O)C1CC(=O)N(c2ccccc2)C1 (stereo not drawn),,"inconclusive: 29.1 µM [cytotoxic, partial curve, poor fit]"
CC1=C(C(=O)Nc2ccc(C)cc2)C(c2ccco2)NC(=O)N1 (stereo not drawn),,"inconclusive: 29.1 µM [rising, single point]"
NC1=NC2=C(CCCC2)C2(CCCCC2)S1,,"inconclusive: 20.6 µM [cytotoxic, partial curve, poor fit]"
COC(=O)c1sccc1S(=O)(=O)N(CC(=O)Nc1ccc(C)c(F)c1)c1ccc(C)c(C)c1,inactive: -27.7%,
CCOC(=O)C1CCN(Cc2ccc(OC)cc2OC)CC1,,"inconclusive: 29.1 µM [cytotoxic, single point]"
O=C(CN1CCN(C(=O)c2ccc(OCc3cn4ccccc4n3)cc2)CC1)Nc1cccc(F)c1,inactive: 0%,
CC(C)n1c(O)c(N=NC(=O)Cn2ccc(C(F)(F)F)n2)c2ccccc21,,active: 8.2 µM
COc1cccc(NC(=O)N(C)C[C@H]2Oc3ncc(Br)cc3C(=O)N([C@H](C)CO)C[C@H]2C)c1,inactive: 1.51%,

SMILES,"activity change, negative = cytotoxicity",Potency
COc1ccc([C@H]2C[C@@H](n3cc(-c4ccc(F)cc4)nn3)[C@H](O)CN2CC2CCCCC2)cc1,,active: 20.6 µM
Cc1c(C(=O)N2CCN(CCc3ccccc3)CC2)oc2ccccc12,,active: 13 µM
CCCOc1ccc(C(=O)Nc2ccc(-c3cc4ccccc4oc3=O)c(C)c2)cc1,,"inconclusive: 4.11 µM [cytotoxic, partial curve, poor fit]"
Cc1c(Cc2ccc3c(c2)OCO3)sc(NC(=O)c2ccccc2)c1C(N)=O,,"inconclusive: 29.1 µM [cytotoxic, single point]"
CCN(CC)S(=O)(=O)c1ccc(/C=C/C(=O)OCC(=O)Nc2cccnc2Cl)cc1,,"inconclusive: 29.1 µM [rising, partial curve, poor fit]"
CCOc1ccc(/C=C/C(=O)N(CC)CC(=O)NCc2cccs2)cc1OC,,"inconclusive: 0.58 µM [cytotoxic, full curve, poor fit]"
CCc1ccc(Nc2nnc(-c3cc4cc(OC)ccc4oc3=O)s2)cc1,,"inconclusive: 5.8 µM [rising, full curve]"
CCOC(=O)[C@]12CCCC=C1N(Cc1ccc3c(c1)OCO3)C(=O)[C@H](CC(=O)N1CCN(C(=O)C3CC3)CC1)C2,,"inconclusive: 5.8 µM [rising, partial curve]"
COc1ccc(C(=O)C2CCN(C(=O)c3ccc(OC)cc3)CC2)cc1,,active: 6.51 µM
CC(=O)c1c(C(C)=O)c(C)n(-c2ccc3ncccc3c2)c1C,,"inconclusive: 13 µM [cytotoxic, partial curve]"
O=C(c1ccc2c(c1)N(Cc1cccc(Cl)c1)C(=O)c1ccccc1S2(=O)=O)N1CCN(c2ccccn2)CC1,,"inconclusive: 14.6 µM [cytotoxic, single point]"
CCOC(=O)c1ccc(NC(=S)NCc2ccccc2)cc1,inactive: 0%,
NC(=O)C1CCN(c2ncc(-c3ccc4c(c3)OCCCO4)s2)CC1,,"inconclusive: 14.6 µM [rising, single point]"
NS(=O)(=O)c1ccc(CCNC(=O)c2ccc3nc4ccc(Cl)cc4c(=O)n3c2)cc1,inactive: 7.59%,
Cn1c(NC(=O)c2cccnc2)nc2ccccc21,,active: 16.4 µM
NNC(=S)Nc1cccc(Cl)c1,inactive: 16.9%,
C=CCNC(=S)N1CCN(c2ccc([N+](=O)[O-])cc2)CC1,,active: 14.6 µM
Cc1cccc(C)c1NC(=O)C(c1ccccc1OC(F)(F)F)N1CCN(C)CC1 (stereo not drawn),,"inconclusive: 18.4 µM [cytotoxic, partial curve]"
CCOC(=O)CC1C(=O)NCCN1S(=O)(=O)c1cc(Cl)c(Cl)cc1Cl (stereo not drawn),,"inconclusive: 20.6 µM [cytotoxic, partial curve]"
Cc1[nH]n(-c2ccccc2)c(=O)c1N=Nc1ccccc1C(=O)N1CCCCC1,,"inconclusive: 7.31 µM [cytotoxic, partial curve]"
CCN(C(=O)Cc1c(C(=O)O)c(C)cn1C)c1cccc(Cl)c1,inactive: 19.6%,
CC(=O)NC1=NN(C(C)=O)C(c2ccccn2)S1 (stereo not drawn),,"inconclusive: 29.1 µM [rising, single point]"
CC(C)NC(=O)Nc1cccc2c1O[C@H](CN(C)C(=O)Nc1ccc(C(F)(F)F)cc1)[C@@H](C)CN([C@H](C)CO)C2=O,inactive: 0.0002%,

SMILES,"activity change, negative = cytotoxicity",Potency
Cc1nnc(SC(C(=O)Nc2ccc(Cl)c([N+](=O)[O-])c2)c2ccccc2)[nH]c1=O (stereo not drawn),,"inconclusive: 9.2 µM [rising, partial curve, poor fit]"
CN(CC(=O)Nc1ccc(N2CCOCC2)cc1)C(=O)CC(c1ccccc1)c1ccccc1,,"inconclusive: 5.17 µM [cytotoxic, full curve]"
OC1c2c(F)cccc2N=C2CCCCCN21 (stereo not drawn),inactive: -4%,
O=C(CN(Cc1ccco1)S(=O)(=O)c1cccs1)Nc1ccccc1C(F)(F)F,,"inconclusive: 2.06 µM [cytotoxic, partial curve, poor fit]"
CCC(=O)N/N=C(\C)CC(=O)Nc1cccc([N+](=O)[O-])c1,,"inconclusive: 7.31 µM [rising, partial curve]"
Cc1cc(C)c(-n2nnnc2SCC(=O)c2cc3ccccc3o2)c(C)c1,,"inconclusive: 23.1 µM [cytotoxic, single point]"
CN(Cc1ccc(OC(F)F)cc1)Cc1nc2c(Br)cc(Br)cc2c(=O)[nH]1,inactive: -4.78%,
Cc1oc(-c2ccc(Cl)cc2)nc1CN1CCCC(C(=O)NCc2ccccn2)C1 (stereo not drawn),inactive: -11.8%,
Cc1ccc(Cl)cc1N1CCN(C(=O)c2nn(C)c3c2CS(=O)(=O)c2ccccc2-3)CC1,,"inconclusive: 6.51 µM [cytotoxic, partial curve]"
Cc1cc(=O)oc2cc(OCC(=O)NCCCN3CCOCC3)ccc12,,"inconclusive: 25.9 µM [rising, single point]"
CCOC(=O)c1csc(NC(=O)c2ccc(S(=O)(=O)N(C)C)cc2)n1,,active: 20.6 µM
Cn1cc(-c2csc(C(O)c3ccc(F)c(F)c3)n2)cn1 (stereo not drawn),inactive: -33.8%,
COc1cc(S(=O)(=O)N2CCN(C(=O)c3ccccc3)CC2)c(OC)cc1Br,,"inconclusive: 4.61 µM [cytotoxic, partial curve]"
CCOC(=O)c1ccc(-c2c(-c3cc(OC)c(OC)c(OC)c3)noc2C)cc1F,,active: 2.06 µM and active: 11.6 µM
COc1ccc(NC(C)C(=O)N/N=C/c2ccccc2OCc2ccc(Br)cc2)cc1 (stereo not drawn),,"inconclusive: 35.5 µM [cytotoxic, single point]"
CC(C)Oc1ccccc1C1CC(=O)Nc2cc3c(cc21)OCCO3 (stereo not drawn),,"inconclusive: 0.731 µM [cytotoxic, full curve, poor fit]"
O=C(NC(=S)NC(=O)c1ccccc1F)c1ccccc1F,,"inconclusive: 13 µM [rising, partial curve]"
Nc1cc([N+](=O)[O-])ccc1Nc1ccccc1,inactive: -22.5%,
Nc1ncc(-c2ccccc2)c(-c2ccc(O)cc2O)n1,,"inconclusive: 18.4 µM [cytotoxic, single point]"
Cc1cc(C)c(C#N)c(SCC(=O)Nc2ccccc2C(N)=O)n1,,"inconclusive: 1.84 µM [cytotoxic, full curve]"
CN1CCN(C2=C(NS(=O)(=O)c3ccccc3)C(=O)c3ccccc3C2=O)CC1,,"inconclusive: 20.6 µM [cytotoxic, partial curve, poor fit]"
FC(F)(F)C1=Nc2cccc3cccc(c23)N1,,"inconclusive: 29.1 µM [cytotoxic, single point]"

# Part of the list above in order of molar mass, rising.
SMILES,"activity change, negative = cytotoxicity",Potency
CC(C)Oc1ccccc1C1CC(=O)Nc2cc3c(cc21)OCCO3 (stereo not drawn),,"inconclusive: 0.731 µM [cytotoxic, full curve, poor fit]"
Cc1cc(C)c(-n2nnnc2SCC(=O)c2cc3ccccc3o2)c(C)c1,,"inconclusive: 23.1 µM [cytotoxic, single point]"
Cc1oc(-c2ccc(Cl)cc2)nc1CN1CCCC(C(=O)NCc2ccccn2)C1 (stereo not drawn),inactive: -11.8%,
COc1ccc(NC(C)C(=O)N/N=C/c2ccccc2OCc2ccc(Br)cc2)cc1 (stereo not drawn),,"inconclusive: 35.5 µM [cytotoxic, single point]"
